Reference: paper doi:10.1101/2025.05.24.655882
These are yes or no findings as the source states them, for the method shown. Binding seen in cells or lysates may run through a third protein. Some results given as binding are weak or reduced against the parent protein; the word gives no strength. Tags and fused reporters may be left off the sequences shown.

The chains behind the UniProt entries cited, without tags or fusion partners.
UniProt P53855, whole entry: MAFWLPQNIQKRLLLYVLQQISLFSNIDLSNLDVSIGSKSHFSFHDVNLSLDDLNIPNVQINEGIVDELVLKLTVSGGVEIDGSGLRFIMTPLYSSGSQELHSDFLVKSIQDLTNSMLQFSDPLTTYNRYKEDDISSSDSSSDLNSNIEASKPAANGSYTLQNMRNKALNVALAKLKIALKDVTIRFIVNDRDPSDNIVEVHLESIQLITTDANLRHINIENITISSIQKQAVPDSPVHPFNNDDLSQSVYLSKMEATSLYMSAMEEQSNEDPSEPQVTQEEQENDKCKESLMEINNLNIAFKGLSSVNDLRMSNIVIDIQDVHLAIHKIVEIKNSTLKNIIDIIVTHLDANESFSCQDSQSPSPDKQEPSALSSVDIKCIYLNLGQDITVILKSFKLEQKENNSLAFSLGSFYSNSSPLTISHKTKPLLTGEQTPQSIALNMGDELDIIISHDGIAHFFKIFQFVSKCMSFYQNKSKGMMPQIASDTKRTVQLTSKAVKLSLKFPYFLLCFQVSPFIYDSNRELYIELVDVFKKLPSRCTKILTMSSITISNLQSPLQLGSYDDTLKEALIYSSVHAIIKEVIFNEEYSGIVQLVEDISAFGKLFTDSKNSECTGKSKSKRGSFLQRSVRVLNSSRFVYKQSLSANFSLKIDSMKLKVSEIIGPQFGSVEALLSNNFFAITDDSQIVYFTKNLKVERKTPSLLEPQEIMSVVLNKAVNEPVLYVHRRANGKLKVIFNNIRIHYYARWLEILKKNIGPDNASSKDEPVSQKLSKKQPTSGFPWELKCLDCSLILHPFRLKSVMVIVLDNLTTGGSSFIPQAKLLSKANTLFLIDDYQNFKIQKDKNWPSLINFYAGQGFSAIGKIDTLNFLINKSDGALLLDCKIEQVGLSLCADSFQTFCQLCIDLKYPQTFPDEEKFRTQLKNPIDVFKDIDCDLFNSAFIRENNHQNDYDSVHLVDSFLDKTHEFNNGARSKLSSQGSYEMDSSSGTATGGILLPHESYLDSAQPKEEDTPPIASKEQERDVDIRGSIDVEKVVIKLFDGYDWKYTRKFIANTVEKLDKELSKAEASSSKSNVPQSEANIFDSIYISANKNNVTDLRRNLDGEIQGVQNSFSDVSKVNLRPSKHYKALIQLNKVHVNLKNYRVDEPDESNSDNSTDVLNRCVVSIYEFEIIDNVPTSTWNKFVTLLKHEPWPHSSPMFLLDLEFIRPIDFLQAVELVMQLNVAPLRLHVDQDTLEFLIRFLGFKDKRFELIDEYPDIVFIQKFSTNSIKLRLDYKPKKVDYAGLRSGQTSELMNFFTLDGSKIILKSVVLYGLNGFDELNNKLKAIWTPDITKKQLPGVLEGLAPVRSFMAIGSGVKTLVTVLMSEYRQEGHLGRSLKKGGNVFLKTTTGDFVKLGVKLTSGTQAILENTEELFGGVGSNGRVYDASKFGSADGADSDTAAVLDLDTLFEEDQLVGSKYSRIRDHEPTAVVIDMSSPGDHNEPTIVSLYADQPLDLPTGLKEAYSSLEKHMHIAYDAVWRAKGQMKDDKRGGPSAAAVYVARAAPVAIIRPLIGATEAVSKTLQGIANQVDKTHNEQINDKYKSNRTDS

B1: Atg18 (co-precipitated with Atg2–HA–EGFP) (protein, UniProt P43601 1-500)
chain: MSDSSPTINFINFNQTGTCISLGTSKGFKIFNCEPFGKFYSEDSGGYAIVEMLFSTSLLALVGIGDQPALSPRRLRIINTKKHSIICEVTFPTSILSVKMNKSRLVVLLQEQIYIYDINTMRLLHTIETNPNPRGLMAMSPSVANSYLVYPSPPKVINSEIKAHATTNNITLSVGGNTETSFKRDQQDAGHSDISDLDQYSSFTKRDDADPTSSNGGNSSIIKNGDVIVFNLETLQPTMVIEAHKGEIAAMAISFDGTLMATASDKGTIIRVFDIETGDKIYQFRRGTYATRIYSISFSEDSQYLAVTGSSKTVHIFKLGHSMSNNKLDSDDSNMEEAAADDSSLDTTSIDALSDEENPTRLAREPYVDASRKTMGRMIRYSSQKLSRRAARTLGQIFPIKVTSLLESSRHFASLKLPVETNSHVMTISSIGSPIDIDTSEYPELFETGNSASTESYHEPVMKMVPIRVVSSDGYLYNFVMDPERGGDCLILSQYSILMD
B2: Atg9 (protein, UniProt Q12142 1-997)
chain: MERDEYQLPNSHGKNTFLSRIFGLQSDEVNPSLNSQEMSNFPLPDIERGSSLLHSTNDSREDVDENDLRVPESDQGTSTEEEDEVDEEQVQAYAPQISDGLDGDHQLNSVTSKENVLETEKSNLERLVEGSTDDSVPKVGQLSSEEEEDNEFINNDGFDDDTPLFQKSKIHEFSSKKSNTIEDGKRPLFFRHILQNNRPQRDTQKLFTSSNAIHHDKDKSANNGPRNINGNQKHGTKYFGSATQPRFTGSPLNNTNRFTKLFPLRKPNLLSNISVLNNTPEDRINTLSVKERALWKWANVENLDIFLQDVYNYYLGNGFYCIILEKILNICTLLFVVFVSTYMGHCVDYSKLPTSHRVSDIIIDKCYSNSITGFTKFFLWMFYFFVILKIVQLYFDVQKLSELQNFYKYLLNISDDELQTLPWQNVIQQLMYLKDQNAMTANVVEVKAKNRIDAHDVANRIMRRENYLIALYNSDILNLSLPIPLFRTNVLTKTLEWNINLCVMGFVFNESGFIKQSILKPSQREFTREELQKRFMLAGFLNIILAPFLVTYFVLLYFFRYFNEYKTSPGSIGARQYTPIAEWKFREYNELYHIFKKRISLSTTLANKYVDQFPKEKTNLFLKFVSFICGSFVAILAFLTVFDPENFLNFEITSDRSVIFYITILGAIWSVSRNTITQEYHVFDPEETLKELYEYTHYLPKEWEGRYHKEEIKLEFCKLYNLRIVILLRELTSLMITPFVLWFSLPSSAGRIVDFFRENSEYVDGLGYVCKYAMFNMKNIDGEDTHSMDEDSLTKKIAVNGSHTLNSKRRSKFTAEDHSDKDLANNKMLQSYVYFMDDYSNSENLTGKYQLPAKKGYPNNEGDSFLNNKYSWRKQFQPGQKPELFRIGKHALGPGHNISPAIYSTRNPGKNWDNNNNGDDIKNGTNNATAKNDDNNGNNDHEYVLTESFLDSGAFPNHDVIDHNKMLNSNYNGNGILNKGGVLGLVKEYYKKSDVGR

Columns and labels:
[1] = biological target: T1, Atg18–3xFLAG (wild type) (S. cerevisiae) (UniProt P43601); experiment: co-IP
T1 sequence: B1 chain

[2] = biological target: Atg2–HA–EGFP (wild type) (S. cerevisiae) (UniProt P53855); experiment: co-IP

Molecule | binding [1] | binding [2]
Atg2 (co-precipitated with Atg18–3xFLAG) (from UniProt P53855 1-1592) | binds | –
B1 | – | binds
B2 | – | binds
